# The list shows a part of the results. Values are raw readings; no control value is given beside them.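 Primary screen: polymyxin B was added at a level permeabilizing Salmonella outer membranes while sparing inner membranes. DMSO wells, both with and without polymyxin B, established maximum growth. Plate-to-plate variation meant each plate was ranked on its own, and the lowest-OD600 compounds were selected as hits.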
# Tested on: Salmonella enterica serovar Typhimurium SL1344
# Assay: bacterial growth OD600 after 18 h with compound and polymyxin B; higher = more bacterial growth (less inhibition)
# Details: 50 µM, Mueller-Hinton broth
SMILES,bacterial growth OD600 (polymyxin B 0.75 µg/mL),bacterial growth OD600 (polymyxin B 1 µg/mL)
Cc1ccc(N2CCC(C3CCN(CC(C)C)CC3)C2)nn1 (stereo unspecified),0.84,
COc1ccccc1C1CCCN1C(=O)CSc1ccc2nnc(-c3cccnc3)n2n1 (stereo unspecified),0.805,
O=C(c1cc(COc2ccc3ncccc3c2)on1)N1CCC(c2ccncc2)CC1,0.755,
COc1ccc2ccc(OCc3nc(C(=O)N4CCCO4)co3)cc2c1,,0.883
O=C(CCc1nnc(-c2ccc3c(c2)OCO3)o1)N1CCN(CC2CC2)CC1,,1.12
Cc1ccc(Oc2ncccc2CNCc2cnc(C)n2C)c(F)c1F,,0.86
O=C(c1cn(CC2CCCO2)nn1)N1CCC(Cc2ccccc2F)CC1 (stereo unspecified),,0.815
COc1ccccc1CCC(=O)Nc1cnn(CC(=O)NCCC(c2ccccc2)c2ccccc2)c1,0.539,
O=C(c1ccc(OC2CCN(C(=O)C3CC3)CC2)cc1)N1CCN(CC2CC2)CC1,,0.923
O=C(c1cn(CCC2CCCCC2)nn1)N1CCCC1c1ccccn1 (stereo unspecified),,0.765
COC1CCCN(C(=O)c2cc(Cl)ccc2OC2CCN(C3CCCC3)CC2)C1 (stereo unspecified),0.741,
CCOC(=O)C1(Cc2ccc(OC)cc2)CCN(C(=O)COc2ccccc2OC)CC1,0.537,
COc1ccc(Cl)cc1NC(=O)CCC1CCCN(C(=O)CCN2CCCO2)C1 (stereo unspecified),,0.844
Fc1ccc(-c2cnnc(NCCc3ccc(Cl)cc3)n2)cc1,0.007,
O=C(Cc1cccnc1)N1CCCC(Nc2ccc(F)cc2)C1 (stereo unspecified),,0.834
Cc1c[nH]c(CNC(=O)C2CCCN(C3CCN(CCc4ccccc4)CC3)C2)n1 (stereo unspecified),,0.947

SMILES,bacterial growth OD600 (polymyxin B 0.75 µg/mL),bacterial growth OD600 (polymyxin B 1 µg/mL)
COc1cccc(OCC2CCCN(Cc3nc(-c4cccs4)no3)C2)c1 (stereo unspecified),,0.78
CCOC(=O)C1(Cc2ccc(F)cc2)CCCN(C(=O)c2oc(C)cc2C)C1 (stereo unspecified),,0.142
CC(=O)Nc1cccc(C(=O)NCc2cccnc2Oc2ccccc2)c1,,0.862
CCn1nc(C)c(CNC2CCN(c3ccc(C(=O)NCCN4CCOCC4)cc3)CC2)c1C,0.912,
CN1C(=O)CC(CC(=O)N2CCN(C3CCCCC3)C(=O)C2)(c2ccc(-c3ccccc3)cc2)C1=O (stereo unspecified),0.007,
CCOC(=O)C1(Cc2ccccc2)CCCN(Cc2cccc3c2OCO3)C1 (stereo unspecified),,0.729
COc1ccc(F)c(CC2(CCC(=O)NCCn3ccc4ccccc43)CCC(=O)N2)c1 (stereo unspecified),0.852,
COc1cccc(CC(C2CCN(C(=O)Cc3ccccc3C)CC2)N(C)C(=O)c2cccnc2)c1 (stereo unspecified),0.97,
CCOC(=O)C1(CCOc2ccccc2)CCCN(Cc2[nH]cnc2C)C1 (stereo unspecified),,0.484
O=C(CC1=CCCCC1)NC1CCCN(c2ncccn2)C1 (stereo unspecified),,0.875
O=C(c1ccc(NC2CCCC2)nc1)N1CCCCC1CCn1cccn1 (stereo unspecified),,0.943
COc1ccc(F)c(CC2(CCC(=O)N(C)Cc3nc4c(s3)CCCC4)CCC(=O)N2)c1 (stereo unspecified),0.843,
COc1cc(CN2CCN(Cc3cccc(O)c3)CC2CCO)cc(OC)c1 (stereo unspecified),,0.786
CN(Cc1ccccn1)C(=O)C1CCC(=O)N(CCc2ccc(Cl)cc2)C1 (stereo unspecified),,0.883
CSc1ccccc1OCc1cc(C(=O)N2CCCCC2c2nccs2)no1 (stereo unspecified),0.003,

# 2 of the compounds above, bar-delimited.
SMILES | bacterial growth OD600 (polymyxin B 0.75 µg/mL) | bacterial growth OD600 (polymyxin B 1 µg/mL)
CCOC(=O)C1(Cc2ccc(F)cc2)CCCN(C(=O)c2oc(C)cc2C)C1 (stereo unspecified) |  | 0.142
CCOC(=O)C1(CCOc2ccccc2)CCCN(Cc2[nH]cnc2C)C1 (stereo unspecified) |  | 0.484
